Values from PubChem BioAssay AID1259405 (NCATS, 2018).
Screen: 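Knock-downs that lift recombinant protein yield in hamster ovary cells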 (primary screen). Cells: Chinese hamster CHO-K1 ovary cells with stable secreted eGFP expression. Reagents: single siRNA against mouse genes, 0.8 pmol siRNA per well (2 µl of 400 nM stock). Duration: 3 days. Measured: 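Percent of the per-plate non-targeting control median for intracellular GFP per well by laser scanning cytometry and for cell viability by ATP luminescence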. Scale: GFP, % of control: higher = more GFP per well, higher productivity; viability (ATP), % of control: higher = more viable cells (more ATP). Rule for the call: 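a knock-down is called active if GFP reaches 120% or more of non-targeting control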.
This is one part, drawn at random, of about 50,000 reagents tested. About 4,000 of all reagents (8%) were called active. 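Mouse siRNA library applied to hamster cells; one well for each siRNA.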 Reagents against one gene are numbered here.

Gene | reagent | GFP, % of control | viability (ATP), % of control | call
Klra1 (killer cell lectin-like receptor, subfamily A, member 1) | 1 | 70 | 79.2 | inactive
Klra1 (killer cell lectin-like receptor, subfamily A, member 1) | 2 | 83.3 | 84.2 | inactive
Klra1 (killer cell lectin-like receptor, subfamily A, member 1) | 3 | 63.7 | 67.9 | inactive
Tmem35a (transmembrane protein 35A) | 1 | 99.8 | 72.5 | inactive
Tmem35a (transmembrane protein 35A) | 2 | 83.9 | 73.9 | inactive
Tmem35a (transmembrane protein 35A) | 3 | 65.9 | 93.2 | inactive
Sppl2a (signal peptide peptidase like 2A) | 1 | 21.7 | 38.3 | inactive
Sppl2a (signal peptide peptidase like 2A) | 2 | 91.2 | 84.1 | inactive
Sppl2a (signal peptide peptidase like 2A) | 3 | 49.6 | 69.4 | inactive
Vezf1 (vascular endothelial zinc finger 1) | 1 | 89 | 88.4 | inactive
Vezf1 (vascular endothelial zinc finger 1) | 2 | 63.8 | 68.4 | inactive
Mafg (Maf bZIP transcription factor G) | 1 | 55 | 64.4 | inactive
Mafg (Maf bZIP transcription factor G) | 2 | 71.7 | 80.9 | inactive
Mafg (Maf bZIP transcription factor G) | 3 | 54.1 | 67.5 | inactive
Ginm1 (glycoprotein integral membrane 1) | 1 | 78.1 | 74.8 | inactive
Ginm1 (glycoprotein integral membrane 1) | 2 | 86 | 118 | inactive
Ginm1 (glycoprotein integral membrane 1) | 3 | 74.5 | 113 | inactive
Mmp1a (matrix metallopeptidase 1a (interstitial collagenase)) | 1 | 85.1 | 125 | inactive
Mmp1a (matrix metallopeptidase 1a (interstitial collagenase)) | 2 | 63 | 67.2 | inactive
Terb1 (telomere repeat binding bouquet formation protein 1) | 1 | 151 | 85 | active
Terb1 (telomere repeat binding bouquet formation protein 1) | 2 | 90.5 | 81.5 | inactive
Terb1 (telomere repeat binding bouquet formation protein 1) | 3 | 103 | 97.6 | inactive
Hmgb2 (high mobility group box 2) | 1 | 78 | 85.3 | inactive
Hmgb2 (high mobility group box 2) | 2 | 58.8 | 66.1 | inactive
Hmgb2 (high mobility group box 2) | 3 | 57.7 | 109 | inactive
Nlrp4c (NLR family, pyrin domain containing 4C) | 1 | 57.2 | 52.6 | inactive
Nlrp4c (NLR family, pyrin domain containing 4C) | 2 | 97.3 | 69.9 | inactive
Nlrp4c (NLR family, pyrin domain containing 4C) | 3 | 58 | 51.9 | inactive
Lamp1 (lysosomal-associated membrane protein 1) | 1 | 82.6 | 79.8 | inactive
Lamp1 (lysosomal-associated membrane protein 1) | 2 | 86.1 | 43.1 | inactive
Lamp1 (lysosomal-associated membrane protein 1) | 3 | 64.2 | 48.8 | inactive
Cabs1 (calcium binding protein, spermatid specific 1) | 1 | 107 | 79.3 | inactive
Cabs1 (calcium binding protein, spermatid specific 1) | 2 | 109 | 60 | inactive
Cabs1 (calcium binding protein, spermatid specific 1) | 3 | 46.8 | 59.8 | inactive
Dnajc4 (DnaJ heat shock protein family (Hsp40) member C4) | 1 | 78.3 | 73.8 | inactive
Dnajc4 (DnaJ heat shock protein family (Hsp40) member C4) | 2 | 85.4 | 79.3 | inactive
Dnajc4 (DnaJ heat shock protein family (Hsp40) member C4) | 3 | 91.4 | 116 | inactive
Slc10a4 | 1 | 57.9 | 55.7 | inactive
Slc10a4 | 2 | 157 | 71.7 | active
Slc10a4 | 3 | 63.5 | 64.6 | inactive
Sec23b (SEC23 homolog B, COPII coat complex component) | 1 | 104 | 70.3 | inactive
Sec23b (SEC23 homolog B, COPII coat complex component) | 2 | 150 | 85.9 | active
Sec23b (SEC23 homolog B, COPII coat complex component) | 3 | 89.9 | 84.9 | inactive
Blmh (bleomycin hydrolase) | 1 | 47 | 86.7 | inactive
Blmh (bleomycin hydrolase) | 2 | 69.7 | 72.2 | inactive
Blmh (bleomycin hydrolase) | 3 | 50.3 | 62.3 | inactive
Slc6a5 | 1 | 83.8 | 79.6 | inactive
Slc6a5 | 2 | 54.8 | 53.9 | inactive
Slc6a5 | 3 | 78 | 75.5 | inactive
Slc35g1 | 1 | 96.7 | 73.9 | inactive
Slc35g1 | 2 | 97.9 | 102 | inactive
Slc35g1 | 3 | 139 | 123 | active
Nlrp4f (NLR family, pyrin domain containing 4F) | 1 | 114 | 127 | inactive
Nlrp4f (NLR family, pyrin domain containing 4F) | 2 | 68.6 | 73.5 | inactive
Nlrp4f (NLR family, pyrin domain containing 4F) | 3 | 84.9 | 120 | inactive
Akap12 (A kinase anchor protein 12) | 1 | 90.2 | 99 | inactive
Akap12 (A kinase anchor protein 12) | 2 | 60.1 | 56.6 | inactive
Hook1 (hook microtubule tethering protein 1) | 1 | 50.2 | 37.9 | inactive
Hook1 (hook microtubule tethering protein 1) | 2 | 73.3 | 49.9 | inactive
Hook1 (hook microtubule tethering protein 1) | 3 | 30.5 | 42.9 | inactive
Plekhn1 (pleckstrin homology domain containing N1) | 1 | 159 | 59.9 | active
Plekhn1 (pleckstrin homology domain containing N1) | 2 | 51.6 | 63.4 | inactive
Plekhn1 (pleckstrin homology domain containing N1) | 3 | 170 | 169 | active
Plekhn1 (pleckstrin homology domain containing N1) | 4 | 56.6 | 96.1 | inactive
Plekhn1 (pleckstrin homology domain containing N1) | 5 | 83.2 | 87.9 | inactive
Plekhn1 (pleckstrin homology domain containing N1) | 6 | 95.1 | 70.4 | inactive
Pum1 (pumilio RNA-binding family member 1) | 1 | 53.8 | 37.5 | inactive
Pum1 (pumilio RNA-binding family member 1) | 2 | 65.6 | 79.7 | inactive
Pum1 (pumilio RNA-binding family member 1) | 3 | 111 | 59.1 | inactive
Or6c202 (olfactory receptor family 6 subfamily C member 202) | 1 | 75.7 | 88.7 | inactive
Or6c202 (olfactory receptor family 6 subfamily C member 202) | 2 | 116 | 69.6 | inactive
Or6c202 (olfactory receptor family 6 subfamily C member 202) | 3 | 154 | 0.918 | active
Slc26a3 | 1 | 45.9 | 49.1 | inactive
Slc26a3 | 2 | 98.7 | 87.2 | inactive
Slc26a3 | 3 | 76.7 | 88.6 | inactive
Slc31a2 | 1 | 60.9 | 113 | inactive
Slc31a2 | 2 | 57.5 | 64.9 | inactive
Slc31a2 | 3 | 79.3 | 84.2 | inactive
Cxcl13 (C-X-C motif chemokine ligand 13) | 1 | 37.5 | 32.9 | inactive
Cxcl13 (C-X-C motif chemokine ligand 13) | 2 | 79.3 | 73.5 | inactive
Cxcl13 (C-X-C motif chemokine ligand 13) | 3 | 29.6 | 53.7 | inactive
Ang (angiogenin, ribonuclease, RNase A family, 5) | 1 | 138 | 98.7 | active
Ang (angiogenin, ribonuclease, RNase A family, 5) | 2 | 93.8 | 101 | inactive
Ang (angiogenin, ribonuclease, RNase A family, 5) | 3 | 41 | 26.9 | inactive

5 entries from above, limited to “viability (ATP), % of control”:
Tmem35a (transmembrane protein 35A) #1 = 72.5
Tmem35a (transmembrane protein 35A) #2 = 73.9
Tmem35a (transmembrane protein 35A) #3 = 93.2
Sppl2a (signal peptide peptidase like 2A) #1 = 38.3
Sppl2a (signal peptide peptidase like 2A) #2 = 84.1
